Reference: paper PMC9203742 (Nature Communications, 2022)
Several values for one entry are separate records, joined by “and”; a condition that tells them apart may be missing. Identical values can stand only once. Further values from the same series stand in other lists.

Columns and labels:
Type in all cases: cell-based, mouse
[1] = test system: Purkinje cells in cerebellar slices from mGlu1^CBC/+ mice; test: chemLTD recording (PF-EPSC) in Purkinje cells of acute cerebellar slices, mGlu1^CBC/+ mice; details: mGlu1CBC/+, individual cells
Experimental: (§1) Sagittal cerebellar slices were cut with a microslicer (Linear slicer Pro7; DOSAKA EM) in cutting solution buffer and then incubated in ACSF gassed with 5% CO2 and 95% O2 at room temperature.
(§2) Whole-cell patch-clamp recordings were made from visually identified Purkinje cells using a 60× water-immersion objective attached to an upright microscope (BX51WI, Olympus) at room temperature, as described previously. […] Picrotoxin (100 µM; Sigma) was always added to the saline to block inhibitory synaptic transmission.
(§3) To evoke EPSCs derived from CF (CF-EPSCs) and PF (PF-EPSCs) inputs onto Purkinje cells, square pulses were applied through a stimulating electrode placed on the granular layer and the molecular layer (50 µm away from the pial surface), respectively. The selective stimulation of CFs and PFs was confirmed by the paired-pulse depression (PPD) and paired-pulse facilitation (PPF) of EPSC amplitudes at a 50-ms interstimulus interval (ISI), respectively.
(§4) For the LTD sessions, PF-EPSCs were recorded successively at a frequency of 0.1 Hz from Purkinje cells clamped at –80 mV. After a stable PF-EPSC amplitude had been observed for at least 5 min, a conjunctive stimulation that consisted of 30 single PF stimuli together with a 200 ms depolarizing pulse from a holding potential of –60 to +20 mV was applied for LTD induction.
(§5) To chemically induce LTD (chemLTD), 50 µM (S)-3,5-dihydroxyphenylglycine (DHPG) or 1 µM Pd(sulfo-bpy) was applied for 10 min in a current-clamp mode. We often observed a transient decrease in PF-EPSC amplitude after the application of each drug probably because Purkinje cells under current-clamp conditions excite spontaneously to suppress presynaptic function through the retrograde signaling. Access resistances were monitored every 10 s by measuring the peak currents in response to 2 mV, 50-ms hyperpolarizing steps throughout the experiments; the measurements were discarded if the resistance changed by >20% of its original value. The normalized EPSC amplitude on the ordinate represents the EPSC amplitude for the average of six traces for 1 min divided by that of the average of six traces for 1 min immediately before the conjunctive stimulation or the drug application.

[2] = test system: GFP-positive Purkinje cells infected with AAV-L7-mGlu1^WT; test: chemLTD recording in GFP-positive Purkinje cells, slices infected with AAV-L7-mGlu1^WT; details: AAV-L7-mGlu1WT
[3] = test system: Purkinje cells in cerebellar slices from mGlu1^CBC/CBC mice; test: chemLTD recording (PF-EPSC) in Purkinje cells of acute cerebellar slices, mGlu1^CBC/CBC mice; details: mGlu1CBC/CBC, individual cells
Experimental: as §1, §2, §3, §4, §5

Compound: Cc1ccnc(-c2cc(COCCCS(=O)(=O)[O-])ccn2)c1.[Cl][Pd][Cl].[Na+] [Pd(sulfo-bpy)]
- PF-EPSC amplitude relative to time 0 ([1]; time 23 min): 0.6979 and 0.6667 and 0.5689 and 0.9423
- PF-EPSC amplitude relative to time 0 ([1]; time 24 min): 0.6128 and 0.6246 and 0.8331 and 0.6906 and 0.6354 and 0.7352 and 0.6004 and 0.886
- PF-EPSC amplitude relative to time 0 ([1]; time 25 min): 0.6769 and 0.5852 and 0.803 and 0.7179 and 0.6785 and 0.786 and 0.6614 and 0.8895
- PF-EPSC amplitude relative to time 0 ([1]; time 26 min): 0.6177 and 0.5789 and 0.8177 and 0.7253 and 0.6666 and 0.798 and 0.6621 and 0.8822
- PF-EPSC amplitude relative to time 0 ([1]; time 27 min): 0.5832 and 0.5989 and 0.8267 and 0.6955 and 0.7067 and 0.7231 and 0.6671 and 0.9062
- PF-EPSC amplitude relative to time 0 ([1]; time 28 min): 0.6105 and 0.5989 and 0.8749 and 0.6877 and 0.5465 and 0.7224 and 0.6773 and 0.8986
- PF-EPSC amplitude relative to time 0 ([1]; time 29 min): 0.5423 and 0.5779 and 0.834 and 0.6772 and 0.5703 and 0.7242 and 0.6413 and 0.9077
- PF-EPSC amplitude relative to time 0 ([1]; time 30 min): 0.5346 and 0.5702 and 0.8473 and 0.693 and 0.5412 and 0.687 and 0.6391 and 0.8461
- PF-EPSC amplitude relative to time 0 ([1]; time 31 min): 0.583 and 0.5743 and 0.8498 and 0.6369 and 0.5735 and 0.726 and 0.678 and 0.9086
- PF-EPSC amplitude relative to time 0 ([1]; time 32 min): 0.5526 and 0.5451 and 0.8895 and 0.6477 and 0.5619 and 0.5767 and 0.6547 and 0.9603
- PF-EPSC amplitude relative to time 0 ([1]; time 33 min): 0.5438 and 0.4906 and 0.8315 and 0.6387 and 0.6003 and 0.6337 and 0.6759 and 0.9643
- PF-EPSC amplitude relative to time 0 ([1]; time 34 min): 0.5442 and 0.5724 and 0.8449 and 0.6303 and 0.652 and 0.5905 and 0.6831 and 0.9693
- PF-EPSC amplitude relative to time 0 ([1]; time 35 min): 0.5766 and 0.6213 and 0.783 and 0.6375 and 0.6196 and 0.5612 and 0.6583 and 0.993
- PF-EPSC amplitude normalized to time 0, individual Purkinje cells ([2]; Time 25 min): 0.8818 and 0.9425 and 1.0844 and 0.5784 and 0.9859
- PF-EPSC amplitude normalized to time 0, individual Purkinje cells ([2]; Time 26 min): 1.004 and 0.9231 and 0.8221 and 0.9404 and 1.037 and 0.585 and 0.9556
- PF-EPSC amplitude normalized to time 0, individual Purkinje cells ([2]; Time 27 min): 1.073 and 0.923 and 0.8487 and 0.9084 and 1.097 and 0.5895 and 0.9443
- PF-EPSC amplitude normalized to time 0, individual Purkinje cells ([2]; Time 28 min): 1.11 and 0.9481 and 0.8852 and 0.9612 and 1.149 and 0.5973 and 0.9705
- PF-EPSC amplitude normalized to time 0, individual Purkinje cells ([2]; Time 29 min): 1.069 and 0.7935 and 0.9277 and 0.9552 and 1.169 and 0.557 and 0.9446
- PF-EPSC amplitude normalized to time 0, individual Purkinje cells ([2]; Time 30 min): 1.046 and 0.644 and 0.8651 and 0.9247 and 1.165 and 0.5678 and 0.9522
- PF-EPSC amplitude normalized to time 0, individual Purkinje cells ([2]; Time 31 min): 1.046 and 0.6373 and 0.8291 and 0.9162 and 1.128 and 0.5443 and 0.8801
- PF-EPSC amplitude normalized to time 0, individual Purkinje cells ([2]; Time 32 min): 1.178 and 0.7545 and 0.8295 and 0.911 and 1.061 and 0.5272 and 0.8976
- PF-EPSC amplitude normalized to time 0, individual Purkinje cells ([2]; Time 33 min): 1.0972 and 0.8511 and 0.8322 and 0.8783 and 0.9952 and 0.5531 and 0.8493
- PF-EPSC amplitude normalized to time 0, individual Purkinje cells ([2]; Time 34 min): 1.136 and 0.8651 and 0.9034 and 0.8734 and 0.9683 and 0.5732 and 0.9496
- PF-EPSC amplitude normalized to time 0, individual Purkinje cells ([2]; Time 35 min): 1.17 and 0.8178 and 0.8694 and 0.8838 and 1.083 and 0.5142 and 0.9812
- PF-EPSC amplitude normalized to time 0, individual Purkinje cells ([2]; Time 36 min): 1.192 and 0.9334 and 0.8592 and 0.8469 and 1.019 and 0.5108 and 0.9303
- PF-EPSC amplitude normalized to time 0, individual Purkinje cells ([2]; Time 37 min): 1.221 and 1.077 and 0.4748 and 0.9426
- PF-EPSC amplitude normalized to time 0, individual Purkinje cells ([2]; Time 38 min): 1.176 and 0.6699 and 1.074 and 0.4085 and 0.9188
- PF-EPSC amplitude relative to time 0 ([3]; time 20 min): 0.6603 and 0.6245 and 0.9332 and 0.8291 and 0.8101 and 0.5256 and 0.7044 and 0.9643 and 0.594 and 0.5093
- PF-EPSC amplitude relative to time 0 ([3]; time 21 min): 0.8175 and 0.7771 and 0.6526 and 0.9089 and 0.7545 and 0.826 and 0.5903 and 0.6292 and 0.9028 and 0.6495 and 0.5151
- PF-EPSC amplitude relative to time 0 ([3]; time 22 min): 0.9143 and 0.7146 and 0.683 and 1.087 and 0.786 and 0.6558 and 0.5944 and 0.6587 and 0.8562 and 0.6106 and 0.483
- PF-EPSC amplitude relative to time 0 ([3]; time 23 min): 0.7184 and 0.6752 and 0.6612 and 0.9997 and 0.7861 and 0.7879 and 0.6624 and 0.6243 and 0.8711 and 0.6376 and 0.5034
- PF-EPSC amplitude relative to time 0 ([3]; time 24 min): 0.6808 and 0.6538 and 0.6539 and 1.034 and 0.7802 and 0.6909 and 0.618 and 0.6832 and 0.8294 and 0.5919 and 0.4725
- PF-EPSC amplitude relative to time 0 ([3]; time 25 min): 0.7046 and 0.7563 and 0.6659 and 1.1895 and 0.7183 and 0.7201 and 0.6197 and 0.6585 and 0.9079 and 0.6113 and 0.5126
- PF-EPSC amplitude relative to time 0 ([3]; time 26 min): 0.6771 and 0.7413 and 0.7095 and 1.035 and 0.6929 and 0.7788 and 0.6126 and 0.6278 and 0.8506 and 0.6022 and 0.45
- PF-EPSC amplitude relative to time 0 ([3]; time 27 min): 0.6315 and 0.7109 and 0.6743 and 1.171 and 0.7555 and 0.8041 and 0.6251 and 0.5864 and 0.7957 and 0.6459 and 0.4236
